Measurements: PMC12772503
These are yes or no findings as the source states them, for the method shown. In cells and extracts the contact can be indirect. Binding calls can cover weak binding; strength is not graded here. Tags and fused reporters may be left off the sequences shown.

B1: V5-tagged DLIC (protein, UniProt Q9VZ20 1-493)
chain: MAMNSGTQTNALTSSFTMKKKDAAAEKENLWSAILNEVQTQGSTKLPSNKSVLVLGDNATGKTTLIAKLQGVEDPKKGSGLEYAYIDVKDEYRDDMTRLGVWVLDGDPGHTNLLHYALNETNYAHTLVILTVSMTQPWGWLEQLNHWIKVLGQHIDSLQLDAKEKEAARQRLTTTWQSYCEVGDDLDPGSPVKRTMRNNSIDEDDLLPLTEDALITNLGLDIVVVVTKTDYMTTLEKEYEYRDEHFDFIQQWIRNFCLRHGTSLFYTSVKEDKNCDVLYKYLTHRIYGLPFRTPALVVEKDAVLIPAGWDSLKKISILYENMHGVKAENPYTDIIKSPPTRKAVSNREAEVQTEDEQAFLARQQEILKQGDQVRGESPLRSQGVGSNKSGPRTPGTTGQSSPKKIDPKLTPATPGAEGVLANFFNSLLHKKSGSPGTGGPGGAGNPAGPGRTANGTDAVMTPEKLAVRTDAAAELDRLSRSVKKEIDMSQSEC
B2: myc-tagged full-length Syd (protein, UniProt Q9GQF1 1-1227)
chain: MMDNDDALLNNGGPQSGAETVYGTEDNNMVMSEKNEQVVSIVQQLAGSIYQEFERMINRYDEDVVKNLMPLLVNVLECLDASYRINQEQDVEVELLREDNEQLVTQYEREKSARKQSEQKLLEAEDLAEQENKELATRLESVESIVRMLELKHKNSLEHASRLEEREADLKKEYNKLHERYTELFKNHVDYMERTKMLMGSTHSQMSTASERMDVSRARLNPVARSSGPVSYGFASLENSVMLDTETICSVGSQSDDSGPPSLQNELDNLSGTLERGAATDALQQQHHATSPQSPDSSPVVPNVPTNVGRSTTKKEQRSDNNLYQELSFQDNEESEENEIVTGSWVHPGEYASSANDNYFGMGKEVENLIMENNELLATKNALNIVKDDLIVKVDELTGEVEIVREELNAMQQSRTKLRQRISELEDELKKAKEQVKQQNTEQEENDVPLAQRKRFTRVEMAMVLMERNQYKERLMELQEAVRLTEILRASRTVDNLDRKSKQSIWKYFSNLFTPSNRPTERVADGLGGGPMFRHTGGGSPAHSHGSPSRGSGGGDNRLALTSGQPPVHPASAGLANALIMPKDYAEEGSSERISARRREQYRQLRAHVQKEDGRLHAYGWSLPINKASQEANPNRHSGGVPVPVYCNPLAEASPHMKVFCAAGVNLHGGFTKNGQSLIPANSPYAPKSTLKIAEITSPTADQSMEALDRQMARVSLETLEPETQLSSFVWICTSTHAASTVSVVDANQSATVLDAFPICASHLLCIASVQGAMESDYALLEQSEVVKAGEMLQRPGEGTELLGKVEFVRVKPKSDDEQNSNEKQQQEEEEAKEATEKSNEQLPAVSAEEPLGNVEAIKIRQPLPGAPQRLSTDGNQTNNNNNSSSSSNLLFATKSLNPILETKDRDEPAMSSVGPTMWLGAQDGWLYVHSSVGRWHECLHRVLLPDAVLAIVHVEARVVVALANAQLAVFRRQTDGQWDLNSYHLVTLGDRNHSIRCLCVAGERIWAAHRNKIFIVDPVSLNIVHSLDAHPRKESQVRQMAATGAGVWVSIRLDSTLRLYNTHTFEHKQDVDIEPYVSKMLGTGKLGFSFVRITALMVSCNRLWIGTSNGVIISVPLAEVQPKSSSDPHGQMPLCCMANAQLSFHGHRDAVKFFVSVPMLQQPNLNGGLTFTNKRPDMLVMCGGEGYIDFRINDNDMENSIQLEPNQTIENRGDKSYLIVWHVSQR
B3: myc-Syd-C1 (Syd^530-1226) (domain or fragment, UniProt Q9GQF1 530-1226)
chain: GPMFRHTGGGSPAHSHGSPSRGSGGGDNRLALTSGQPPVHPASAGLANALIMPKDYAEEGSSERISARRREQYRQLRAHVQKEDGRLHAYGWSLPINKASQEANPNRHSGGVPVPVYCNPLAEASPHMKVFCAAGVNLHGGFTKNGQSLIPANSPYAPKSTLKIAEITSPTADQSMEALDRQMARVSLETLEPETQLSSFVWICTSTHAASTVSVVDANQSATVLDAFPICASHLLCIASVQGAMESDYALLEQSEVVKAGEMLQRPGEGTELLGKVEFVRVKPKSDDEQNSNEKQQQEEEEAKEATEKSNEQLPAVSAEEPLGNVEAIKIRQPLPGAPQRLSTDGNQTNNNNNSSSSSNLLFATKSLNPILETKDRDEPAMSSVGPTMWLGAQDGWLYVHSSVGRWHECLHRVLLPDAVLAIVHVEARVVVALANAQLAVFRRQTDGQWDLNSYHLVTLGDRNHSIRCLCVAGERIWAAHRNKIFIVDPVSLNIVHSLDAHPRKESQVRQMAATGAGVWVSIRLDSTLRLYNTHTFEHKQDVDIEPYVSKMLGTGKLGFSFVRITALMVSCNRLWIGTSNGVIISVPLAEVQPKSSSDPHGQMPLCCMANAQLSFHGHRDAVKFFVSVPMLQQPNLNGGLTFTNKRPDMLVMCGGEGYIDFRINDNDMENSIQLEPNQTIENRGDKSYLIVWHVSQ
B4: V5-tagged Arl8 (protein, UniProt Q9VHV5 1-186)
chain: MLALINRILEWFKSIFWKEEMELTLVGLQFSGKTTFVNVIASGQFAEDMIPTVGFNMRKITRGNVTIKVWDIGGQPRFRSMWERYCRGVNAIVYMVDAADLDKLEASRNELHSLLDKPQLAGIPVLVLGNKRDLPGALDETGLIERMNLSSIQDREICCYSISCKEKDNIDITLQWLIQHSKSQSR
B5: myc-Syd-N2 (Syd^1-529) (domain or fragment, UniProt Q9GQF1 1-529)
chain: MMDNDDALLNNGGPQSGAETVYGTEDNNMVMSEKNEQVVSIVQQLAGSIYQEFERMINRYDEDVVKNLMPLLVNVLECLDASYRINQEQDVEVELLREDNEQLVTQYEREKSARKQSEQKLLEAEDLAEQENKELATRLESVESIVRMLELKHKNSLEHASRLEEREADLKKEYNKLHERYTELFKNHVDYMERTKMLMGSTHSQMSTASERMDVSRARLNPVARSSGPVSYGFASLENSVMLDTETICSVGSQSDDSGPPSLQNELDNLSGTLERGAATDALQQQHHATSPQSPDSSPVVPNVPTNVGRSTTKKEQRSDNNLYQELSFQDNEESEENEIVTGSWVHPGEYASSANDNYFGMGKEVENLIMENNELLATKNALNIVKDDLIVKVDELTGEVEIVREELNAMQQSRTKLRQRISELEDELKKAKEQVKQQNTEQEENDVPLAQRKRFTRVEMAMVLMERNQYKERLMELQEAVRLTEILRASRTVDNLDRKSKQSIWKYFSNLFTPSNRPTERVADGLGG

Target: HA-tagged RUFY (Drosophila)
Assay: co-IP; lysates (1.0 mg/ml) of transfected HEK293 cells on Pierce anti-HA magnetic beads, 2 h, 4°C; 20 mM HEPES pH 7.4, 130 mM NaCl, 2 mM MgCl2, 0.1% saponin; 60 uM GppNHp with Rab2(wt) and Rab2[Q65L] but not Rab2[S20N]; eluted with 100 mM NaOH or HA peptide; Western blot; in Fig. S2 E cells treated with 2 uM MLi-2 for 2 h or co-transfected with LRRK2^G2019S

Binder | binding
B1 | binds
B2 | binds
B3 | binds
B4 | binds
B5 | no binding
